The target of this data set is p53 (wild-type, endogenous) (Homo sapiens) (UniProt P04637). Kind of data set: binding assay. The note with it: ChIP with CM1 antibody and qPCR in HCT116; enrichment comparable to p21 site, increased by 5-FU, p53 knockdown control; protein in cells.

Where cells or extracts were used, other partners may take part.

As for “GGGCTTGCCTGGGCTTGTTC (double strand) [miR-34a gene p53 binding site (p53BS, exon 1 of pm34a-EST)]”, the binding result is given as “binds”.

Source of the values: US20140256789.
